Source: PubChem BioAssay AID504744 (Drosophila RNAi Screening Center, 2011)
The deposit covers about 23,000 reagents; shown is a random part of those with a known target gene and a result. Over the whole deposit, 98 (0.43%) were called active. 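Only hit calls are given; the phospho-dAkt signals, z-scores and hit direction were not deposited.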 Reagents against one gene are numbered here.

Test: 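Find genes whose loss alters insulin-driven dAkt phosphorylation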 (primary screen)
System: Drosophila Kc167 cells
Knock-down reagent: long dsRNA against Drosophila genes, 250 ng dsRNA per well of a 384-well plate
Time to read-out: 3 days of knock-down, then overnight serum-free starvation before stimulation
Treatment: bovine insulin at 387 nM for 10 minutes after 12 h without serum
Measured: 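Per-well phospho-dAkt level from an in-cell fluorescent antibody stain, divided by a DNA-dye signal; log2 residuals turned into z-scores that take cell number into account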
Active means: 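Hit in the insulin screen when the two-replicate mean z-score is more extreme than plus or minus 2.5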

nab #1 showed inactive. nab #2 gave inactive. After knock-down of ssh (slingshot) the results were inactive. After knock-down of PolD2 (DNA polymerase delta subunit 2), the record shows inactive. Rb97D (Ribonuclear protein at 97D) showed inactive. Against byn (brachyenteron), the values are inactive.

With knock-down of CtsB (Cathepsin B), the record shows inactive. After knock-down of Ccp84Ac, the record shows inactive. Against COX7C (Cytochrome c oxidase subunit 7C) the deposit lists inactive. With knock-down of CG11755, the screen gave inactive. Knock-down of CG11127 came out at: inactive. After knock-down of CG11191, the screen gave inactive.

Against CG2938 the deposit lists inactive. For CG14220 the deposit lists inactive. Silencing of Cyp4aa1 (Cytochrome P450 4aa1) resulted in: inactive. For comt (comatose) the deposit lists inactive. Against Cyt-c-p (Cytochrome c proximal), the entry reads inactive. Against CG12520, the entry reads inactive.

After knock-down of Cyp4d2 (Cytochrome P450 4d2) the results were inactive. Knock-down of Cyp28c1 (Cytochrome P450 28c1) came out at: inactive.

A few values from above:
Under “Outcome”, CG2938 reads inactive
For “Outcome”, byn (brachyenteron) is entered as inactive
Entry of Ccp84Ac under “Outcome”: inactive

More entries follow:
Silencing of CG11291 came out at: inactive. After knock-down of GstT2 (Glutathione S transferase T2), the screen gave inactive. Depletion of CG33477 came out at: inactive. For Cpr65Eb (Cuticular protein 65Eb), the entry reads inactive. Against cN-IIIB (cytosolic 5'-nucleotidase IIIB), the entry reads inactive. For Drsl6 (Drosomycin-like 6), the values are inactive.

Silencing of Pgam5-2 (Phosphoglycerate mutase 5-2) came out at: inactive. For CG15498 the deposit lists inactive. Against Cp15 (Chorion protein 15), the entry reads inactive. Silencing of CG4161 gave: inactive. Knock-down of spdi (split discs) #1 came out at: inactive. spdi (split discs) #2 scored inactive.

With knock-down of Cox10 (Cytochrome c oxidase assembly factor 10) the results were inactive. CG15450 scored inactive. Silencing of CG34024 (retired record) resulted in: inactive. Silencing of CG14354 resulted in: inactive. Syt14 (Synaptotagmin 14) scored inactive. CG17575 gave inactive.

Silencing of PhKgamma (Phosphorylase kinase gamma) resulted in: inactive.
